Common to all, as to test: co-IP; HEK293T cells transiently expressing the tagged proteins; IP with anti-FLAG antibody (reciprocal IPs with anti-STIM1 or anti-mCherry antibodies for STIM1; reciprocal co-IPs for CLPTM1 and PRKCSH); immunoblot; no GPER1 agonist
One test has as its target mCherry-STIM1 (UniProt Q13586).
In test [1] the target is N-terminally 3xFLAG-tagged GPER1 (G protein-coupled estrogen receptor 1) (UniProt Q99527).
Test [2] deals with N-terminally 3xFLAG-tagged GPER1 fused to APEX2 (UniProt Q99527).

By UniProt entry, the sequences of proteins in these tests, tags left out. Where a name states a change or a piece, a line headed by the entry shows the natural chain unless it says otherwise.
UniProt Q13586: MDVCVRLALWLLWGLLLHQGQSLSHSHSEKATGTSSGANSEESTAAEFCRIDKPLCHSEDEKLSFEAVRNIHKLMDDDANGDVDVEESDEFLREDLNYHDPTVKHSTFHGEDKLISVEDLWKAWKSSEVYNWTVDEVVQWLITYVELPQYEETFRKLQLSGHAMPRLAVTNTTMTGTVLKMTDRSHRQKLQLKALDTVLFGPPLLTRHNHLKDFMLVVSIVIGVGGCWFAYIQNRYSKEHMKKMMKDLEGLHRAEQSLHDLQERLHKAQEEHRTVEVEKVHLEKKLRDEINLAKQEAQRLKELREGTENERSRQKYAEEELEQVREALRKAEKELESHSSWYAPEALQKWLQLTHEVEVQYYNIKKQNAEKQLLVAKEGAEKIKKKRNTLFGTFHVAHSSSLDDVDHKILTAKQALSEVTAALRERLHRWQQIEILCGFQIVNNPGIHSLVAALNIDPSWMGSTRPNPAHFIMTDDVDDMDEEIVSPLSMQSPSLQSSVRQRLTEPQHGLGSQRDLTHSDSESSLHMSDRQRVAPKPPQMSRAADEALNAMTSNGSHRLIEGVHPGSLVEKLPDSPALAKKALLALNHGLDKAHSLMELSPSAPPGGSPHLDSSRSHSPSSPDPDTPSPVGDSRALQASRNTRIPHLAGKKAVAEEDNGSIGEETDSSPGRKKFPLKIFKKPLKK
UniProt Q99527: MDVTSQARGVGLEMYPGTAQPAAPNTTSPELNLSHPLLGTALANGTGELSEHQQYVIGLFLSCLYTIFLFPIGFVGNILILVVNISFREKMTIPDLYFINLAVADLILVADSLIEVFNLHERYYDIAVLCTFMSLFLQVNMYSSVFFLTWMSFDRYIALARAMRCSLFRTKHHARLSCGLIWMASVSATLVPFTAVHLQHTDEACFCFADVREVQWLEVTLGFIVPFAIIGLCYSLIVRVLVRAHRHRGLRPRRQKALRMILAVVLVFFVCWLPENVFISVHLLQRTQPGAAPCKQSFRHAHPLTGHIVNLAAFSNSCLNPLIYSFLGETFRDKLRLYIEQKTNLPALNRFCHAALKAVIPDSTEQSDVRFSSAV

Results are given in words; binding and its absence hold for the method and conditions named. Binding seen in cells or lysates may run through a third protein. Some binding calls cover weakened binding; strength is not graded here.

On to “N-terminally 3xFLAG-tagged GPER1 (G protein-coupled estrogen receptor 1) (from UniProt Q99527 1-375)”, for which, in the test with mCherry-STIM1, the binding result was “binds”. Take “N-terminally 3xFLAG-tagged GPER1 fused to APEX2 (from UniProt Q99527 1-375) (receptor)”: the binding entry with mCherry-STIM1 is reported as “binds”.

For “mCherry-STIM1 (1-241) (from UniProt Q13586 23-241) (domain or fragment)”, the binding entry in test [1] was “binds”.

On to “mCherry-STIM1 (from UniProt Q13586 23-685)”, for which the binding result in test [2] and in test [1] was “binds” throughout.

The values above are taken from article PMC10650109.
